Here are results for one molecule from paper doi:10.1101/2022.06.05.494812.

In the assay the target is T1, Myc-tagged Baz (Bazooka, Par3) (Drosophila) (UniProt O96782).
T1 sequence: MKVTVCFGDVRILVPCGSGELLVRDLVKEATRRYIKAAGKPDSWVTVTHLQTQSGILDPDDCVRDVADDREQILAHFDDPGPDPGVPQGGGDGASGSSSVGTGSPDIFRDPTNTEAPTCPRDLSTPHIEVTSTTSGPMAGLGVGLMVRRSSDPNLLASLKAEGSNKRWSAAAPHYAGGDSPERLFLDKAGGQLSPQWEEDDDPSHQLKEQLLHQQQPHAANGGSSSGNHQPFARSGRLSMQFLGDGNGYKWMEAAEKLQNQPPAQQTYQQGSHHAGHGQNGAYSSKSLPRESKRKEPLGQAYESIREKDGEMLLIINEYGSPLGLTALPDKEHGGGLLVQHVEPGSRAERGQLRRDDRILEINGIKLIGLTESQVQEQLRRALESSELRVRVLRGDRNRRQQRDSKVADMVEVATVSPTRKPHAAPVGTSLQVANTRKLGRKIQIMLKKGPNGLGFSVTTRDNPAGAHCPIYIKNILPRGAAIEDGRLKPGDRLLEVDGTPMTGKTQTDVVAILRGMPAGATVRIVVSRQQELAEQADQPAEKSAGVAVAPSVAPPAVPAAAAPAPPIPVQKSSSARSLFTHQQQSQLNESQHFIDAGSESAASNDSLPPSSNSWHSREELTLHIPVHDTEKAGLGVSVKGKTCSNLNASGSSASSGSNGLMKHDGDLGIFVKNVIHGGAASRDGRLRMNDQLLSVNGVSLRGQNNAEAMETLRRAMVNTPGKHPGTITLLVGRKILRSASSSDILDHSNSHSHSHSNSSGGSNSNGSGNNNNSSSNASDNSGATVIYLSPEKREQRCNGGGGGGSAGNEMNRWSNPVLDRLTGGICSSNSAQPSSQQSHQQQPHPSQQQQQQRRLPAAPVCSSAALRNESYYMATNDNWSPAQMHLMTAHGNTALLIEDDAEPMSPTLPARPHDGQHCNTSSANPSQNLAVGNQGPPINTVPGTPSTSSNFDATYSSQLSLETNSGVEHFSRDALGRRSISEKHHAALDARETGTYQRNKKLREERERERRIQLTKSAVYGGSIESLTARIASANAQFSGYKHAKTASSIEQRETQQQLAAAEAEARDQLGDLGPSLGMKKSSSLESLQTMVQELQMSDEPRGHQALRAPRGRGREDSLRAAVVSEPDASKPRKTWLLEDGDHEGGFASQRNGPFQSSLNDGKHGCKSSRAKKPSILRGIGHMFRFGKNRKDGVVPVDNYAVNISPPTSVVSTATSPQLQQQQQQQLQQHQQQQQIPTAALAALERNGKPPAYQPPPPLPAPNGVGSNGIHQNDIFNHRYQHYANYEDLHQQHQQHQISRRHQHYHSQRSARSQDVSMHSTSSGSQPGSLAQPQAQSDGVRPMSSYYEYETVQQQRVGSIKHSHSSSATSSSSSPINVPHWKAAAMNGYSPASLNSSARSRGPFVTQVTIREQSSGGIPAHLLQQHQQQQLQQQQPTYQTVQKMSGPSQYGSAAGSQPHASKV
Nature of the assay: co-IP.

These are yes or no findings as the source states them, for the method shown. Binding seen in cells or lysates may run through a third protein. Some binding calls cover weakened binding; strength is not graded here. Where a sequence is shown, tags or fusion partners need not be part of it.

B1: Flag-Insc (Inscuteable) (protein, UniProt Q24367 1-859)
chain: MSFQRSYSKVWWGSEQSSLTSGGFYSSFSGGSSTSSTSNYPQRQPASLGPLGNLSCIQEVEDEQNSSKLSWHKHDSPGSLRSQDSGFSDNEESHQLQHQQNLSPPSPQSDKQQTPAATPTSVHSVATPPTVVRRVGNSSFYSPLISVTRRISFTSGQITPKTRSGDEDAEDAELEASRSRLFEQLDSMKLDDGEAEAEEDSPPRPAIRRRRRLMRKPMPEPEAASASEEEEVVIAPPPPPPYNNETVYLGEAPPPYNNETVTFGATEQDESLQQQPSPLRVRSLRFTASTSTPKSGSKIAKRGKKHPEPVASWMSEQRWAGEPEVMCTLQHKSIAQEAYKNYTITTSAVCKLVRQLQQQALSLQVHFERSERVLSGLQASSLPEALAGATQLLSHLDDFTATLERRGVFFNDAKIERRRYEQHLEQIRTVSKDTRYSLERQHYINLESLLDDVQLLKRHTLITLRLIFERLVRVLVISIEQSQCDLLLRANINMVATLMNIDYDGFRSLSDAFVQNEAVRTLLVVVLDHKQSSVRALALRALATLCCAPQAINQLGSCGGIEIVRDILQVESAGERGAIERREAVSLLAQITAAWHGSEHRVPGLRDCAESLVAGLAALLQPECCTQTLLLCAAALNNLSRMEATSHYSIMSNEAIFRLIDTLEHQTCGTSVFLYEQIVGMLHNMSLNKKCHSHLANGVIINFITSVYQTEFYQTYGSRAESDAQRRTIKTILHTLTRLASDSPTLGAELLEQWHLPDLLRQSLALKPANSQQQQHLDSSYGGDISQLARQLLRAHGQEQQLLEATPAPGGSFSSGHQTPEAQTQTNSSGMSSSGSKTKAKSSASRLLKFNLTRQESFV
Take B1: the binding entry is reported as “binds”.
